Legend:
[1] = tested on: Ramos cells; experiment: MTT cell viability assay, Ramos B-cell lymphoma cells; assay type: cell-based; settings: Homo sapiens, 24 h, mean ± SEM, read-out: IC50 (growth inhibition)
Experimental: (§1) Two fast-growing malignant B cell lymphoma (Burkitt lymphoma) cell lines and human umbilical vein endothelial cells (HUVEC) were used. Ramos and HUVEC cells were purchased from American Type Culture Collection (Manassas, VA, USA) and BJAB cells were a kind gift from Professor Ping-Ning Hsu (National Taiwan University Hospital and National Taiwan University, College of Medicine, Taipei, Taiwan). Ramos and BJAB cells were cultured in RPMI-1640 with 10% heat-inactivated fetal bovine serum and penicillin (100 units/ml)/streptomycin (100 μg/ml) while HUVEC was cultured in M199 with 20% heat-inactivated fetal bovine serum (v/v) and penicillin (100 units/mL)/streptomycin (100 μg/mL). All cells were maintained in humidified air containing 5% CO2 at 37°C. Cell density was maintained between 1×10^5 and 1×10^6 cell/ml and passaged every 2 to 3 days.
(§2) Cell viability was assessed by MTT assay. […] After the treatment, 100 μl of 0.5 mg/ml 3-(4,5-Dimethylthiazol-2-yl)-2,5-diphenyl-tetrazolium bromide (MTT) were added to each well and incubated at 37°C to stained cells forming an insoluble blue formazan product. After 1 h incubation, 100 μl of extraction reagent (0.1M sodium acetate buffer or DMSO) were added to each well and mix thoroughly to lyse cells. The plates were then measured at 550 nm using an enzyme-linked immunosorbent assay (ELISA) reader (Packard, Meriden, CT, USA).

[2] = tested on: BJAB cells; experiment: MTT cell viability assay, BJAB B-cell lymphoma cells; assay type: cell-based; settings: Homo sapiens, 24 h, mean ± SEM, read-out: IC50 (growth inhibition)
Experimental: as §1, §2

## O=C(CCCCCCC(=O)Nc1ccccc1)NO [SAHA, reference compound]
[1]
  IC50: 2.61 ± 0.4 µM
[2]
  IC50: 44.2 ± 10 µM
